Data from paper doi:10.1101/2023.12.26.573381.
Read-outs that look alike come from different tables or passages of the source. Results are given in words; binding and its absence hold for the method and conditions named. Binding seen in cells or lysates may run through a third protein. Some results given as binding are weak or reduced against the parent protein; the word gives no strength. For some assays here: Sequences can lack the tags named with a protein.

Amino acid sequences for entries named in this document (tags omitted). Residues count along the entry.
UniProt Q9H0K1: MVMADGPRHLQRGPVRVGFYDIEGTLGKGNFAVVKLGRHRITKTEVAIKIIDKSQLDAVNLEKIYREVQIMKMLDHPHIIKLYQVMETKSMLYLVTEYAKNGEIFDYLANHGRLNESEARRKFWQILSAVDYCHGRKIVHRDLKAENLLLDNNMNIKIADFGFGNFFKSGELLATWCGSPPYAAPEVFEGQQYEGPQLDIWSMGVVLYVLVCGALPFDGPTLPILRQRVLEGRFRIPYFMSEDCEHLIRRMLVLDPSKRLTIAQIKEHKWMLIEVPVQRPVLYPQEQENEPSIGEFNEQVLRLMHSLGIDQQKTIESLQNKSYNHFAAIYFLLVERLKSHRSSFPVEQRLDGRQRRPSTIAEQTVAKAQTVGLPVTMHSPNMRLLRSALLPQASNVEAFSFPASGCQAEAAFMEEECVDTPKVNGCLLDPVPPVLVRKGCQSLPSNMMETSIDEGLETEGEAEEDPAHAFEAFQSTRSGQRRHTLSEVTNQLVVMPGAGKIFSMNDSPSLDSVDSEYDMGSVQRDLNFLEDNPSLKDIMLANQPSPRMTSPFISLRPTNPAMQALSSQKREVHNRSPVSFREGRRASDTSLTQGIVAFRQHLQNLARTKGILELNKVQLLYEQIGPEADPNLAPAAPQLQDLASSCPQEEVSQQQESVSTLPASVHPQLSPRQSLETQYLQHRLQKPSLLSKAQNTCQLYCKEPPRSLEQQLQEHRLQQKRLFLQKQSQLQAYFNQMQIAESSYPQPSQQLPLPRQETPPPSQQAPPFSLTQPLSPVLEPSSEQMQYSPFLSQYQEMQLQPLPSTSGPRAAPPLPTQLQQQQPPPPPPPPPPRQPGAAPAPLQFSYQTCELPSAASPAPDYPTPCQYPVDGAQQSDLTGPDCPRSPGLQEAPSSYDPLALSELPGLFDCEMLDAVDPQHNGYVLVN
UniProt P21802, residues 22-821: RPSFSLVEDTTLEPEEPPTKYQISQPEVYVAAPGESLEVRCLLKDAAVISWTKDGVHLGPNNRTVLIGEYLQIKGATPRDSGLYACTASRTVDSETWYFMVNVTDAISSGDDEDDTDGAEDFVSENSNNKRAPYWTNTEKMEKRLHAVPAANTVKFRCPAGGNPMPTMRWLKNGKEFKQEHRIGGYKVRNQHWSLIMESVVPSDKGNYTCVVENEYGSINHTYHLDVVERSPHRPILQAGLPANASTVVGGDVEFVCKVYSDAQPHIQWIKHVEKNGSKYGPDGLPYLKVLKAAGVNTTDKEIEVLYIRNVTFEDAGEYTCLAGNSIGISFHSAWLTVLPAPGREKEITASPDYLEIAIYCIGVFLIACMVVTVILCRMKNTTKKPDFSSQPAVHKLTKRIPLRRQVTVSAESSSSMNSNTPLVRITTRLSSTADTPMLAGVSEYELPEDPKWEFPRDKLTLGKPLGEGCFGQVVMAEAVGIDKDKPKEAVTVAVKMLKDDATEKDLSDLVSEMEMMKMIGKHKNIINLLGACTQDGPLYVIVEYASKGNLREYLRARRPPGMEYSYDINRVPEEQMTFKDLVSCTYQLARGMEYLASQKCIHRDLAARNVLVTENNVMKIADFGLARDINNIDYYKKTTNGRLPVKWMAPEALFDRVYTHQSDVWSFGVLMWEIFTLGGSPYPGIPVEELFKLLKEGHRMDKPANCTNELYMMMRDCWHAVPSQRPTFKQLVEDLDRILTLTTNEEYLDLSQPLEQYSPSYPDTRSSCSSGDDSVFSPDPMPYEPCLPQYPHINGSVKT
UniProt P62993: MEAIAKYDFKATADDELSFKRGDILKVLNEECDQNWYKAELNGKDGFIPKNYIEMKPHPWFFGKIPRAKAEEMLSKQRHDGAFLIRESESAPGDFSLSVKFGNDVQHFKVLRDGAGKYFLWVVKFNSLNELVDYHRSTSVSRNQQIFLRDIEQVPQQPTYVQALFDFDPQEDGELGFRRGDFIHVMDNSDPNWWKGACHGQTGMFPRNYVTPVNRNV

What was measured:
Test in all cases: co-IP
[1] = biological target: Salt Inducible Kinase 2 (SIK2), endogenous in MIO-M1 cells (human (endogenous in MIO-M1)) (UniProt Q9H0K1)
[2] = biological target: T1, c-Myc tagged human Gab1 S266A (human) (UniProt Q13480)
T1 sequence: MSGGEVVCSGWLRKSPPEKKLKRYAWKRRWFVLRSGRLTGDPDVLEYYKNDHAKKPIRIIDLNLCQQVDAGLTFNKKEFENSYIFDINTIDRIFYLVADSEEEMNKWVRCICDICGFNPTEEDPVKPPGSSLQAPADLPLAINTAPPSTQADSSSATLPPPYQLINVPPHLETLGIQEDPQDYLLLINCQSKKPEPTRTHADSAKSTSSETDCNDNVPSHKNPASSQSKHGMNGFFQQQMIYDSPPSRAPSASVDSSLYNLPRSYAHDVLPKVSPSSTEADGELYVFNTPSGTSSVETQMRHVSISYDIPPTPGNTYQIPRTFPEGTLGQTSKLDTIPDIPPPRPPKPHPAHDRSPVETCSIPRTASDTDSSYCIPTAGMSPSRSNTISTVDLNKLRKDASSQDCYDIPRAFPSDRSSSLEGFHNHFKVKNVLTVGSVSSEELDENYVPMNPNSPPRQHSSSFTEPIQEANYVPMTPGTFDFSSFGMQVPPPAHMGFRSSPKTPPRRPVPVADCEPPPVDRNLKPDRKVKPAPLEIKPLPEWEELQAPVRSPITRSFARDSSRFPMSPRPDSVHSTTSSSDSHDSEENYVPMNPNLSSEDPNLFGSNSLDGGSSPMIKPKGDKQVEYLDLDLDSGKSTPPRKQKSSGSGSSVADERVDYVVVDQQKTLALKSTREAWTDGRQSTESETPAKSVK

[3] = biological target: T2, Gab1 docking protein, endogenous in MIO-M1 cells (human (endogenous in MIO-M1)) (UniProt Q13480)
T2 sequence: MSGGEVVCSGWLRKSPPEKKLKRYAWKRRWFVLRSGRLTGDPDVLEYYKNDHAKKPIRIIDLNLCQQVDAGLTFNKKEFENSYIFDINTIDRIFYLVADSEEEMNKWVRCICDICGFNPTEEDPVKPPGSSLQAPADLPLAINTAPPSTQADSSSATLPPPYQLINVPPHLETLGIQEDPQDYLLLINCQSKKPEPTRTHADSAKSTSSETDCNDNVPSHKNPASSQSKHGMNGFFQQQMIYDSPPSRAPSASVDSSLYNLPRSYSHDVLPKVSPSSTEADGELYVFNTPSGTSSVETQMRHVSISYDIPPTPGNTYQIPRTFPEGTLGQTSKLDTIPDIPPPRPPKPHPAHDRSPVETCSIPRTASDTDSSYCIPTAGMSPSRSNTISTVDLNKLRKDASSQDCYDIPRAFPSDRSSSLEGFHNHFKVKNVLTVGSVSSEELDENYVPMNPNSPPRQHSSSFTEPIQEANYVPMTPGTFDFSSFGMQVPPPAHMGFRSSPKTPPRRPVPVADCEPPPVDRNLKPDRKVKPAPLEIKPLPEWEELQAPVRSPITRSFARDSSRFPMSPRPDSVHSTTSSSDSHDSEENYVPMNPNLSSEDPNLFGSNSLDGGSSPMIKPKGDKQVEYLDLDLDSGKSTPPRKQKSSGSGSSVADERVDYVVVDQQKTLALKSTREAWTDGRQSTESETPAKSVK

[4] = biological target: Salt Inducible Kinase 2 (SIK2), endogenous in MIO-M1 cells (human (endogenous in MIO-M1)) (UniProt Q9H0K1); remark: listed apart in the source

For “FGFR2, endogenous in MIO-M1 cells (from UniProt P21802 22-821) (receptor)”, the binding [1] was “binds”.

With “Grb2, endogenous in MIO-M1 cells (from UniProt P62993 1-217)” the binding [2] was “binds” and the binding [3] was “binds”.

For “Salt Inducible Kinase 2 (SIK2), endogenous in MIO-M1 cells (from UniProt Q9H0K1 1-926)”, the binding [3] was “binds”.

B1: Gab1 docking protein, endogenous in MIO-M1 cells (protein, UniProt Q13480 1-694)
chain: MSGGEVVCSGWLRKSPPEKKLKRYAWKRRWFVLRSGRLTGDPDVLEYYKNDHAKKPIRIIDLNLCQQVDAGLTFNKKEFENSYIFDINTIDRIFYLVADSEEEMNKWVRCICDICGFNPTEEDPVKPPGSSLQAPADLPLAINTAPPSTQADSSSATLPPPYQLINVPPHLETLGIQEDPQDYLLLINCQSKKPEPTRTHADSAKSTSSETDCNDNVPSHKNPASSQSKHGMNGFFQQQMIYDSPPSRAPSASVDSSLYNLPRSYSHDVLPKVSPSSTEADGELYVFNTPSGTSSVETQMRHVSISYDIPPTPGNTYQIPRTFPEGTLGQTSKLDTIPDIPPPRPPKPHPAHDRSPVETCSIPRTASDTDSSYCIPTAGMSPSRSNTISTVDLNKLRKDASSQDCYDIPRAFPSDRSSSLEGFHNHFKVKNVLTVGSVSSEELDENYVPMNPNSPPRQHSSSFTEPIQEANYVPMTPGTFDFSSFGMQVPPPAHMGFRSSPKTPPRRPVPVADCEPPPVDRNLKPDRKVKPAPLEIKPLPEWEELQAPVRSPITRSFARDSSRFPMSPRPDSVHSTTSSSDSHDSEENYVPMNPNLSSEDPNLFGSNSLDGGSSPMIKPKGDKQVEYLDLDLDSGKSTPPRKQKSSGSGSSVADERVDYVVVDQQKTLALKSTREAWTDGRQSTESETPAKSVK
For B1, the binding [4] was “binds”.
